What all share (assay): co-IP
The target of experiment [1] is T1, SRF K165A (site-directed mutant of pCGN-SRF-HA) (UniProt P11831).
T1 sequence: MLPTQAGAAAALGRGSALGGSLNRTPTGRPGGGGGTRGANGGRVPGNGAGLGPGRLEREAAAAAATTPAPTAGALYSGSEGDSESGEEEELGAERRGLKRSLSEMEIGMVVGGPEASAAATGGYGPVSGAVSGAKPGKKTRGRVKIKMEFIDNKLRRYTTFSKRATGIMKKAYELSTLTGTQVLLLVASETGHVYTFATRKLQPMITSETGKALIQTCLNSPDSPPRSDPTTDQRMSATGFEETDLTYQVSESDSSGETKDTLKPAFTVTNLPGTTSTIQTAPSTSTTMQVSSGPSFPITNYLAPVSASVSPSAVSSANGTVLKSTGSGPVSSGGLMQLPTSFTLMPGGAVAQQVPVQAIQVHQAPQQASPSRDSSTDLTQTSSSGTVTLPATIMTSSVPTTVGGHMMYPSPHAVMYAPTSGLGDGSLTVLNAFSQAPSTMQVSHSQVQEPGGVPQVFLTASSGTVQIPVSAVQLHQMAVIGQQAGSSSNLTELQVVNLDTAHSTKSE

The chains behind the UniProt entries cited, without tags or fusion partners. Where a name states a change or a piece, a line headed by the entry shows the natural chain unless it says otherwise.
UniProt P10085, whole entry, stated change not applied: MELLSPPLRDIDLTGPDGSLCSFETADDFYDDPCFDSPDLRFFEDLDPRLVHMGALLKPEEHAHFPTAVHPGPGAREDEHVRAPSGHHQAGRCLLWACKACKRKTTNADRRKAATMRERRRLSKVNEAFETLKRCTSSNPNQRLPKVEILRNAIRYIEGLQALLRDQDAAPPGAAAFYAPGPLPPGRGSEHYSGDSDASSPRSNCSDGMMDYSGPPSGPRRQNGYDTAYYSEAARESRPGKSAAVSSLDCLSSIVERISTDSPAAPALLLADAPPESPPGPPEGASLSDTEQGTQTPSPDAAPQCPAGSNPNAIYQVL

In experiment [2] the target is T2, HA-tagged SRF, full length (pCGN-SRF-HA) (UniProt P11831).
T2 sequence: T1 sequence with A165K

Experiment [3] addresses T1, SRF K165A (site-directed mutant of pCGN-SRF-HA). This is another data set of the same source.
Experiment [4] concerns the target T2, HA-tagged SRF, full length (pCGN-SRF-HA). This is another data set of the same source.
Experiment [5] has as its target T3, Flag-tagged KDM2B (pCMV-3xFlag-KDM2B) (UniProt Q8NHM5).
T3 sequence: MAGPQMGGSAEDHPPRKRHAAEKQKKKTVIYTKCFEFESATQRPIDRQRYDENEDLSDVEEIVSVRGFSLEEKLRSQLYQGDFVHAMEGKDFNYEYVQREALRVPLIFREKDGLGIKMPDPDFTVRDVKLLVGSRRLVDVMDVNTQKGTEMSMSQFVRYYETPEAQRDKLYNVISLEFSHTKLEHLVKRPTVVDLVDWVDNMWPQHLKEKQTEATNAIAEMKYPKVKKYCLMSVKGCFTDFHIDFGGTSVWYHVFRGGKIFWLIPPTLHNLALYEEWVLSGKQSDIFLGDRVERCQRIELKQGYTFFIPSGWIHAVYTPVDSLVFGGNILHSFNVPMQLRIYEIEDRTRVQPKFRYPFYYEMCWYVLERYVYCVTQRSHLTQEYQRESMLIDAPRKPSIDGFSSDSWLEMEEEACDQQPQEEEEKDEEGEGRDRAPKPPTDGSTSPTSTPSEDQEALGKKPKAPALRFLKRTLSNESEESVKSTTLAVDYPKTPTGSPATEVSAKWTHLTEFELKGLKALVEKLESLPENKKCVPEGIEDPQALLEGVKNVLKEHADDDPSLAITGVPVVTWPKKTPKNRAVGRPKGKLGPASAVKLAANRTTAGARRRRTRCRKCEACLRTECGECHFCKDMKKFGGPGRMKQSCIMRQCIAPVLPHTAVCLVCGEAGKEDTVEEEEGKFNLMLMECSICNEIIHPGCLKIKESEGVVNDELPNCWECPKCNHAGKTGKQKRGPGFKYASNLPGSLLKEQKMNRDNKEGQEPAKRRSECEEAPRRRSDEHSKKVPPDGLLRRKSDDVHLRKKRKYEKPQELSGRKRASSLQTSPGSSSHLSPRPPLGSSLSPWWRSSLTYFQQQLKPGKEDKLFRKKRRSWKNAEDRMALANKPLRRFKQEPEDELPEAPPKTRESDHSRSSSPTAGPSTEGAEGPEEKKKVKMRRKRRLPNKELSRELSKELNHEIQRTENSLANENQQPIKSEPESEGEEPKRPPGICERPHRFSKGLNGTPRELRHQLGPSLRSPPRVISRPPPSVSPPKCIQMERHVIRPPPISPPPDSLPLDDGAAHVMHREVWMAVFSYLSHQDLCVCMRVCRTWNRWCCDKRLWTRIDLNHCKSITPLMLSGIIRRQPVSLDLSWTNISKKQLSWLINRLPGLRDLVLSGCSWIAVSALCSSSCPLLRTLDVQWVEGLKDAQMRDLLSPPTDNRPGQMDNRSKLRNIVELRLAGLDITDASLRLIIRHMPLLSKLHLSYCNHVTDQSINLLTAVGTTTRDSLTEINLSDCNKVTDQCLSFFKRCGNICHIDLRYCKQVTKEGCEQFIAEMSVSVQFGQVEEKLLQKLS

Experiment [6] has as its target T3, Flag-tagged KDM2B (pCMV-3xFlag-KDM2B). The source holds these as a separate data set.

Residue numbers refer to the chain shown, from its start. Names may count otherwise. Read-outs that look alike come from different tables or passages of the source. No constants are given. Whether binding was seen depends on the method and setting. Binding seen in cells or lysates may run through a third protein. Some binding calls cover weakened binding; strength is not graded here. Where a sequence is shown, tags or fusion partners need not be part of it.

On to “MyoD (as tested with SRF WT and SRF K165A, Fig EV7D) (from UniProt P10085 1-318)”, for which the binding result in experiment [1] and in experiment [2] was “binds” throughout.

B1: SET7 (as tested with SRF WT and SRF K165A, Fig EV7E) (enzyme, UniProt Q8WTS6 1-366)
chain: MDSDDEMVEEAVEGHLDDDGLPHGFCTVTYSSTDRFEGNFVHGEKNGRGKFFFFDGSTLEGYYVDDALQGQGVYTYEDGGVLQGTYVDGELNGPAQEYDTDGRLIFKGQYKDNIRHGVCWIYYPDGGSLVGEVNEDGEMTGEKIAYVYPDERTALYGKFIDGEMIEGKLATLMSTEEGRPHFELMPGNSVYHFDKSTSSCISTNALLPDPYESERVYVAESLISSAGEGLFSKVAVGPNTVMSFYNGVRITHQEVDSRDWALNGNTLSLDEETVIDVPEPYNHVSKYCASLGHKANHSFTPNCIYDMFVHPRFGPIKCIRTLRAVEADEELTVAYGYDHSPPGKSGPEAPEWYQVELKAFQATQQK
For B1, the binding result in experiment [3] and in experiment [4] was “binds” throughout.

B2: HA-tagged SRF, full length (pCGN-SRF-HA) (protein, UniProt P11831 1-508)
chain: T1 sequence with A165K
Consider B2, for which the binding entry in experiment [5] and in experiment [6] was “binds” in each case.

Source of the values: article doi:10.1101/2020.04.17.046342.
